# According to the supplement of paper PMC3334620:
# Over roughly 33,000 sequences, “E-score (-0.5 to 0.5)” has its median near -0.0059; the highest 2% begin near 0.26. The list shows a part of the results.
# Target: T1, Cin5 (UniProt P40917)
# T1 sequence: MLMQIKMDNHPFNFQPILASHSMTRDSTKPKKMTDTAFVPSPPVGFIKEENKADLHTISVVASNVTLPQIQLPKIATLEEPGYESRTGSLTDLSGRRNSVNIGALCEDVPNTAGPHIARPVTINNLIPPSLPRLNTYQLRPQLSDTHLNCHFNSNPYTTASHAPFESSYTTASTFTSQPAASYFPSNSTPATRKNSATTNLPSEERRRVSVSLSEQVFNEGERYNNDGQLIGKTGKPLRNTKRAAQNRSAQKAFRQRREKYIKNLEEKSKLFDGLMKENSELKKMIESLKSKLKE
# Assay: PBM E-score (8-mer binding enrichment) (E-score (-0.5 to 0.5)); higher = stronger / more preferred TF binding
# Conditions: protein concentration: 100 nM; construct: GST-full length
# Procedure, shortened: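 Universal all-10-mer Agilent arrays, double-stranded by primer extension on fresh or once-stripped slides, were probed with about 100-200 nM GST-tagged yeast transcription factors made by PURExpress. Fluorescent anti-GST detected bound protein, and masliner normalised the scans. E-scores from the Universal PBM Analysis Suite were given to each ungapped eight-base word pooled with its reverse complement.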
row,Sequence,PBM E-score
1,CATTTGGA,-0.0212
2,AGAGTTCA,-0.0801
3,ATTACTAA,0.334
4,GGGGGCCA,-0.361
5,ACCCATTC,0.118
6,ATACTATG,0.208
7,ACATGCTG,0.0475
8,ATAATGGA,0.184
9,GGCAAGTA,0.0585
10,AATAAAAC,0.18
11,ACACAACC,0.0551
12,GTCAGAAA,0.0145
13,CATGATTC,-0.0303
14,CGTGCAGC,-0.0253
15,GTATTCCA,0.0693
16,CGAAGTGC,0.0932
17,CCTAGGCG,-0.12
18,TTACTAAA,0.266
19,GACGGGGC,-0.206
20,CAACGTTA,0.153
21,AATTCACA,0.258
22,CTACACAC,0.0775
23,CCCGTAGC,-0.205
24,AATAAGCG,0.109
25,ACTTATTC,0.162

# A run of entries from further up, for reference:
row,Sequence,PBM E-score
8,ATAATGGA,0.184
9,GGCAAGTA,0.0585
10,AATAAAAC,0.18
11,ACACAACC,0.0551
12,GTCAGAAA,0.0145

# Next records.

row,Sequence,PBM E-score
1,ACCCGGTC,-0.145
2,AAGCTTCG,-0.0536
3,GAGGGTGC,-0.316
4,AAGTTGAT,0.0855
5,CCGGCTTC,0.0218
6,ACTGATGC,0.0568
7,AGTGTCTG,0.0894
8,CCTCTCTC,-0.237
9,CATAATCA,0.385
10,TCGTGCAA,-0.00799
11,CGCATGAC,-0.0949
12,AGGTGTCG,-0.0661
13,CTGGCCCA,-0.327
14,CATCAGGA,0.0865
15,AGCCGCTA,-0.116
16,AGACACCC,-0.178
17,AATCAAGC,0.0604
18,CAACTTAC,0.0414
19,AATTAATA,0.341
20,ATAATATA,0.345
21,ATCACGTG,0.124
22,GAGTGCGC,-0.01
23,CGCTCCAG,-0.299
24,ATATGATA,0.314
25,GGGAGGTA,-0.121

row,Sequence,PBM E-score
1,TCAGAGCA,-0.128
2,AAATTCCA,0.295
3,GCACGGCA,-0.125
4,ACTCAAAT,0.0607
5,ACAACAAC,0.139
6,GACTTAAC,-0.143
7,ACGCTGTG,-0.0954
8,GGCGCTAA,-0.0505
9,CCTCTCAG,-0.291
10,GACTCCGC,-0.055
11,CTTTGCAA,0.0565
12,ACCCGTTG,-0.193
13,ACCGGAAC,0.206
14,AGACGTTG,0.0953
15,AGTAGTTC,0.212
16,AGGGTTGC,-0.11
17,CAAGCGCC,-0.291
18,CACAGGAC,-0.063
19,AAATCGAT,0.113
20,ACTTTAGG,-0.0843
21,ACCTAGAG,-0.18
22,GTCGGGCA,-0.173
23,CCAGCCAC,-0.119
24,GAGCCTAC,-0.0572
25,ATGAAACG,0.131

row,Sequence,PBM E-score
1,CCCCGTAA,0.0337
2,ATTATTGA,0.111
3,GAAAAGTC,-0.00316
4,AAGAGAGG,-0.0598
5,AAATGTTG,-0.147
6,TACATGGA,0.0282
7,AGAATGCT,0.127
8,GTCCGGGA,0.0245
9,ATAATTCC,0.211
10,ACCTACCC,0.0263
11,CCAATATC,0.191
12,ATCTCACA,0.0525
13,TGCGAAAA,0.0168
14,CCTCACGA,-0.151
15,AGCAAAGC,-0.0675
16,TAACATTA,0.117
17,CACTTCGG,0.0931
18,GGTTCTCA,0.0519
19,ATTATATG,0.249
20,AGTGGCAG,0.0428
21,CCCCGTAG,-0.0236
22,CTCAATGA,0.0432
23,CGTGCGAC,-0.205
24,TAGGACCA,-0.152
25,CATCCAAA,0.0456

row,Sequence,PBM E-score
1,ACGTGTGA,-0.138
2,ATCGCGTA,0.11
3,AACTCTTC,-0.158
4,TAAACGTA,0.114
5,ATAACGCC,0.0372
6,ACTGTTCG,-0.116
7,AACCGGTG,-0.184
8,CTATCCCA,-0.0461
9,ACCTATGG,-0.112
10,GAGAAACC,-0.0722
11,CCTCCTTA,-0.196
12,AGTAATTA,0.252
13,AGACGAGG,-0.0995
14,GCTGGGCC,-0.363
15,CGGGAATC,0.0268
16,TATTCACA,0.196
17,CACTCGCG,-0.0249
18,TAGTTTGA,0.112
19,CTCGTACA,0.0276
20,CTGGTTAA,-0.0276
21,CCTCTTAG,0.147
22,ATGTGGAA,0.168
23,GGAATAAC,0.0722
24,CGGCCCAC,-0.238
25,GGCATCGA,-0.251

row,Sequence,PBM E-score
1,AATACACA,0.117
2,CCCTCCGC,-0.157
3,ACTTCAGA,-0.125
4,TAGCGCCA,-0.0732
5,GACAACCA,0.0774
6,CGGTCAAC,-0.0738
7,CAACTGAG,0.0925
8,TAGGGATA,0.0697
9,GAAGCCGA,-0.0222
10,AGACGCCG,-0.0115
11,CCAATCAG,-0.0545
12,AGCGGCAG,-0.0733
13,CGTCACTA,0.104
14,ACTAAGGC,0.0177
15,CCGTGTTA,0.0509
16,ACCTTTAG,-0.137
17,ATGTACTA,0.148
18,CCTGTTAA,0.031
19,ATAGAACA,0.117
20,AGAGTGTA,-0.147
21,AAAGGTCT,-0.0768
22,ACGCGGAT,0.0675
23,ATTTCCCG,0.258
24,TAGAGGAA,-0.105
25,AAAGCGCT,0.0805

row,Sequence,PBM E-score
1,ATCACGCA,-0.0636
2,GTAGCGGA,0.0555
3,CTGGTCGC,-0.152
4,CGTCGGGA,-0.0688
5,ATTGGCAA,0.238
6,GGTTACCA,0.0953
7,TCCATGAA,0.103
8,CGAGCAAC,0.0413
9,GCCCCCGC,-0.292
10,ACGGCCAT,-0.202
11,GACGCTGA,-0.0373
12,GCTTGACA,-0.0944
13,AACTGTGT,0.00851
14,AGCAAGCA,-0.178
15,ATTGTTAA,0.0779
16,CACCGCTA,-0.0378
17,CTGTTAAG,-0.14
18,GTCGATTA,0.187
19,TCACGTAA,0.322
20,CGGCCAAA,-0.0777
21,GTCCATCA,0.0496
22,AGGTCCCG,0.0408
23,GTAAGGCA,0.00329
24,CACGGCTG,-0.145
25,CCCCCGGC,-0.366

# Individual results from the entries so far.
# PBM E-score, CGCTCCAG reads -0.299
# PBM E-score, ACCCGTTG reads -0.193
# PBM E-score, CATAATCA reads 0.385
# PBM E-score, TAGAGGAA reads -0.105
# PBM E-score, ATACTATG reads 0.208
# PBM E-score, ATCGCGTA reads 0.11
# PBM E-score, CACTCGCG reads -0.0249

# (list continues)

row,Sequence,PBM E-score
1,ATATGGAG,0.111
2,GATCCCGA,-0.00094
3,CAGCCCCC,-0.441
4,CTGGGAGA,-0.0758
5,AGCTGGGG,-0.0511
6,GTACCGAA,-0.193
7,ACGAATTC,-0.0242
8,CGCACCAA,0.0795
9,GGGATCGA,-0.0326
10,ACCGTACC,-0.114
11,AAAAACAA,0.218
12,CGTCCTCA,-0.104
13,GGCTGAGA,-0.0327
14,ATGCAGAG,-0.141
15,ATGGCGAA,0.231
16,GACAACTC,0.0328
17,ACCCCCTC,-0.445
18,CCATGGTC,-0.208
19,CCAGTTCA,0.0121
20,GAGGATAC,-0.183
21,CCTCAGTA,-0.159
22,AATCATTA,0.127
23,CAGGTGGC,-0.168
24,ATAGTTGC,0.272
25,ACCAGCCG,-0.184

row,Sequence,PBM E-score
1,ACTTGAAT,0.133
2,CGACCTCC,0.0447
3,CGTAGTCA,-0.015
4,TACAGAAA,0.178
5,ATAAGGCG,0.0483
6,GGAGGAAC,-0.235
7,CGGTCAAA,0.0732
8,AGCTCAAA,0.0832
9,CGACGTGA,-0.00516
10,ATCTCAAG,0.0932
11,AGGCTTGA,-0.0503
12,CAAGACTC,-0.00244
13,CATCGCGA,0.0822
14,CCGGTCAA,0.048
15,CGGCACCC,-0.138
16,AAAGGGGT,-0.18
17,CCTACTTC,-0.0498
18,ATATACAC,0.134
19,AACAACGG,-0.00693
